Article PMC5439944
These are yes or no findings as the source states them, for the method shown. For some of these results: In cells and extracts the contact can be indirect. Some binding calls cover weakened binding; strength is not graded here. For some of these results: Where a sequence is shown, tags or fusion partners need not be part of it.

By UniProt entry, the sequences of proteins in these tests, tags left out.
UniProt Q7LBC6: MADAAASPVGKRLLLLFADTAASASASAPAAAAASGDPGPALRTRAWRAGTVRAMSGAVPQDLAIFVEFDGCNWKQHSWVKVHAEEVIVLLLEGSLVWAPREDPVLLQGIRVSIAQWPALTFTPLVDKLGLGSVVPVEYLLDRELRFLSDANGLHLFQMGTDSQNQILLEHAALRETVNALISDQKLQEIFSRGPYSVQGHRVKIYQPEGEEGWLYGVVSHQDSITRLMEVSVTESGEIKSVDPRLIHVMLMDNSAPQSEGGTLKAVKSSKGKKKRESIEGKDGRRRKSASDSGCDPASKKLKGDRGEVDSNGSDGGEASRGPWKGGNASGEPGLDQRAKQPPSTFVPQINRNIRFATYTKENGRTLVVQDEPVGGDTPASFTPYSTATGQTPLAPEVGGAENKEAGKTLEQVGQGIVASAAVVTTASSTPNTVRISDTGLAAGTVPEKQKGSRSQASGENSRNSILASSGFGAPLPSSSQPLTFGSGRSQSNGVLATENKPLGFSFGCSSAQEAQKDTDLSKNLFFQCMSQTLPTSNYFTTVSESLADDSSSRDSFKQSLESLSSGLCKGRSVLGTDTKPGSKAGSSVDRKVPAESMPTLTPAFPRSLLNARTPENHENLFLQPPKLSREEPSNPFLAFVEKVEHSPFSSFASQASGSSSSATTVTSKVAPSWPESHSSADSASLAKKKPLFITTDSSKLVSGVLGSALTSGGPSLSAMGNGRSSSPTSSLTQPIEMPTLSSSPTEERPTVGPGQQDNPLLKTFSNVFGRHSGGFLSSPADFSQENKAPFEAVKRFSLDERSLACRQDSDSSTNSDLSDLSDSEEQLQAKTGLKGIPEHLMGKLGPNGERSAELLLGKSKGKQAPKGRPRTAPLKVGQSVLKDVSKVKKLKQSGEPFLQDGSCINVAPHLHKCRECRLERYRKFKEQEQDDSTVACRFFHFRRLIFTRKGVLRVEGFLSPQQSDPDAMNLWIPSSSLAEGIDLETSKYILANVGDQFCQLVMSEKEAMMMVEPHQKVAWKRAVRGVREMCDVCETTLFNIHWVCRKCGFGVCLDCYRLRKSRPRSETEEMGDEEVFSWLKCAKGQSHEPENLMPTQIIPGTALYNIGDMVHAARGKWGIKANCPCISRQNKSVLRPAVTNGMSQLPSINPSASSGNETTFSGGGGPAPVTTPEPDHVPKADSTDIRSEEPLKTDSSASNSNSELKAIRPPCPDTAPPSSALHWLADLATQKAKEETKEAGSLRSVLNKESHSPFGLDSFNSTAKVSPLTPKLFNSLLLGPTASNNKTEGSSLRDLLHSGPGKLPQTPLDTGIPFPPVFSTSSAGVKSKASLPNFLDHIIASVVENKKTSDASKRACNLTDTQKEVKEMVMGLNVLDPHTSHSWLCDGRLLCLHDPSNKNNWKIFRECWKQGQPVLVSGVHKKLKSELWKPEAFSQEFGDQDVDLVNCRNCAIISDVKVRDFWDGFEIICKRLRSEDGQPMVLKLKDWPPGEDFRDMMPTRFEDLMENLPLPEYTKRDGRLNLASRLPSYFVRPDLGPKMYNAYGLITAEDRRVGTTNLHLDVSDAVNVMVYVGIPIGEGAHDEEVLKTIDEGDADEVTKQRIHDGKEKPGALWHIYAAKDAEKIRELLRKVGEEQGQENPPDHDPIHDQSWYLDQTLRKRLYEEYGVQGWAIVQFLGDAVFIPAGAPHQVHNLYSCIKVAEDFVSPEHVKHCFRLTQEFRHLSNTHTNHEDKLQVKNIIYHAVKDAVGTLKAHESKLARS

T1: RNF41 C34S/H36Q MAPPIT bait (UniProt Q9H4P4)
T1 sequence: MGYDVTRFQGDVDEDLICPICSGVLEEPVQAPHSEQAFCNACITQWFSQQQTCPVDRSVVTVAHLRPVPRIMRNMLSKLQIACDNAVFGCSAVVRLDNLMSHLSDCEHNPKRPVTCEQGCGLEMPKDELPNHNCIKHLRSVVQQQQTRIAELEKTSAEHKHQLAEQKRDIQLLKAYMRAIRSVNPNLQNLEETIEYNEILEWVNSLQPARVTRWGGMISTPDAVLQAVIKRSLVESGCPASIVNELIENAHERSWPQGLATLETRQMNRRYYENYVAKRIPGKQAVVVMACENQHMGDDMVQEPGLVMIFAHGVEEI

T2: Flag-tagged VPS52 (wild type) (UniProt Q8N1B4)
T2 sequence: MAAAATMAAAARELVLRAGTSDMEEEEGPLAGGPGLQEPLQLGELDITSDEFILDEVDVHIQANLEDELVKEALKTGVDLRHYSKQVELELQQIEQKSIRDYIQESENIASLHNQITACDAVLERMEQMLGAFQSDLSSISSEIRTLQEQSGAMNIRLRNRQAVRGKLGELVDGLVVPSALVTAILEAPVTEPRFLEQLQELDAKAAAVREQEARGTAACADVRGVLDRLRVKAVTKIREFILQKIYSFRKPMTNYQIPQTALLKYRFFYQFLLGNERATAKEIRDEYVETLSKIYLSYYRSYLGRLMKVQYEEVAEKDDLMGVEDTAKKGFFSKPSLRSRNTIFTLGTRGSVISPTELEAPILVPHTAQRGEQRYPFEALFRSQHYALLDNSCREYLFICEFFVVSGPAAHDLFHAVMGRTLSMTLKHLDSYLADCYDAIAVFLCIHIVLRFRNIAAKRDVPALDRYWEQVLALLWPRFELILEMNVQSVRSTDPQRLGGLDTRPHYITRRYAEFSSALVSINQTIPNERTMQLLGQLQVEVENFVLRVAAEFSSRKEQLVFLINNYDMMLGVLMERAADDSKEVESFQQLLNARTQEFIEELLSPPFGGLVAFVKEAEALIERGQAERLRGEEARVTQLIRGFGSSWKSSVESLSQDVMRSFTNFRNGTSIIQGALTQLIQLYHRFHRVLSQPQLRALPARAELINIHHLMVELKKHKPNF

T3: RNF41 wild type MAPPIT bait (UniProt Q9H4P4)
T3 sequence: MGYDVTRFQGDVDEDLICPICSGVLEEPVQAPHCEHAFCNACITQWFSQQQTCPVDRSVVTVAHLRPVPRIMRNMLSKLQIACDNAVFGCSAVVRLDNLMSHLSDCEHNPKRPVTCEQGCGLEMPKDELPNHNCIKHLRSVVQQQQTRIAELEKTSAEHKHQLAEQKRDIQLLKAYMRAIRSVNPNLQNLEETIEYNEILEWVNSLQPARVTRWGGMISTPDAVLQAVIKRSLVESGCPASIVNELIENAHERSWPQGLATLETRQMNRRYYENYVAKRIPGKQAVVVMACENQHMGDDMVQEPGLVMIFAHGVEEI

T4: RNF41 L163Q mutant MAPPIT bait (UniProt Q9H4P4)
T4 sequence: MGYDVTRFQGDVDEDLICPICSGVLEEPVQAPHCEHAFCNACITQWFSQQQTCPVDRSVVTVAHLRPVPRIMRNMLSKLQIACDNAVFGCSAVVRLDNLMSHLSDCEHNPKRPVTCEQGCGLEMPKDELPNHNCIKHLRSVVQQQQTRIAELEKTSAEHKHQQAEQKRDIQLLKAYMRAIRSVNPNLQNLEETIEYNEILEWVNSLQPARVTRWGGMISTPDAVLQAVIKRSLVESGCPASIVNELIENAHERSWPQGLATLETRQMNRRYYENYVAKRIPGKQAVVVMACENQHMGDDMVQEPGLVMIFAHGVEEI

T5: Flag-tagged RNF41 (wild type) (UniProt Q9H4P4)
T5 sequence: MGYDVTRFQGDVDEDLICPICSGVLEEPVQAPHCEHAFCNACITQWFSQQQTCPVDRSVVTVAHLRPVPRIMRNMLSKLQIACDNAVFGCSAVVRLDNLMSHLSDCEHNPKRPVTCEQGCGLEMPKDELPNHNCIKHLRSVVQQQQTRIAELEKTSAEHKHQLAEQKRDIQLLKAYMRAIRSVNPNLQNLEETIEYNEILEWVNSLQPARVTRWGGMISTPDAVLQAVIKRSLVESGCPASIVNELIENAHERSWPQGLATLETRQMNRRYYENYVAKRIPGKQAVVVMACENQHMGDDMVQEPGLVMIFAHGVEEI

T6: Flag-tagged RNF41 L163Q (UniProt Q9H4P4)
T6 sequence: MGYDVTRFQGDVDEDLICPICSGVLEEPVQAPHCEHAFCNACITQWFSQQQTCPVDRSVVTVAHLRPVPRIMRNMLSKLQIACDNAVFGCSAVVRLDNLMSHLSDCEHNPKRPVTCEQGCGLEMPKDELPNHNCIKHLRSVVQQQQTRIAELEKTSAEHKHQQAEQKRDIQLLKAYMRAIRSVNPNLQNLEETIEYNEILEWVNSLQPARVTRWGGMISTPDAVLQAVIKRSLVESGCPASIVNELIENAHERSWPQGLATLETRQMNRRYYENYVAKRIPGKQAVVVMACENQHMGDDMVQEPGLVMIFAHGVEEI


How the values were obtained:
[1] = target: T1, RNF41 C34S/H36Q MAPPIT bait; test: two-hybrid; Array MAPPIT (mammalian two-hybrid in intact cells): RNF41 C34S/H36Q bait screened against 8,569 full length human ORF preys; luciferase read-out
[2] = target: T2, Flag-tagged VPS52 (wild type); test: AlphaScreen or HTRF; AlphaScreen on lysates of HEK293T cells co-transfected with an E-tagged and a Flag-tagged protein together with a third protein or soluble IL5Rα (mock)
[3] = target: T3, RNF41 wild type MAPPIT bait; test: two-hybrid; binary MAPPIT in HEK293T cells: bait, prey and pXP2d2-rPAP1-luciferase reporter co-transfected, 24 h Epo (5 ng/ml) or untreated; fold induction relative to a JAK2 binding prey
[4] = target: T4, RNF41 L163Q mutant MAPPIT bait; test: as above
[5] = target: T5, Flag-tagged RNF41 (wild type); test: AlphaScreen or HTRF; AlphaScreen on lysates of HEK293T cells co-transfected with an E-tagged and a Flag-tagged protein together with a third protein or soluble IL5Rα (mock)
Flag-tagged RNF41 L163Q [6] = target: T6, Flag-tagged RNF41 L163Q; test: AlphaScreen or HTRF; AlphaScreen on lysates of HEK293T cells co-transfected with an E-tagged and a Flag-tagged protein; biotinylated anti-E-tag antibody, FLAG (M2) acceptor beads, streptavidin donor beads; TAP lysis buffer
[7] = target: T5, Flag-tagged RNF41 (wild type); test: as above
Flag-tagged RNF41 L163Q [8] = target: T6, Flag-tagged RNF41 L163Q; test: co-IP; HEK293T cells co-transfected with an E-tagged and a Flag-tagged protein; anti-Flag M2 agarose, elution with Flag peptide, blot with anti-Etag and anti-Flag
[9] = target: T5, Flag-tagged RNF41 (wild type); test: as above

binding [1]	binding [3]	binding [4]	Molecule	other results
binds			KDM3B MAPPIT prey (from UniProt Q7LBC6 1-1761)	
			E-tagged VPS52 (protein, UniProt Q8N1B4 1-723) MAAAATMAAAARELVLRAGTSDMEEEEGPLAGGPGLQEPLQLGELDITSDEFILDEVDVHIQANLEDELVKEALKTGVDLRHYSKQVELELQQIEQKSIRDYIQESENIASLHNQITACDAVLERMEQMLGAFQSDLSSISSEIRTLQEQSGAMNIRLRNRQAVRGKLGELVDGLVVPSALVTAILEAPVTEPRFLEQLQELDAKAAAVREQEARGTAACADVRGVLDRLRVKAVTKIREFILQKIYSFRKPMTNYQIPQTALLKYRFFYQFLLGNERATAKEIRDEYVETLSKIYLSYYRSYLGRLMKVQYEEVAEKDDLMGVEDTAKKGFFSKPSLRSRNTIFTLGTRGSVISPTELEAPILVPHTAQRGEQRYPFEALFRSQHYALLDNSCREYLFICEFFVVSGPAAHDLFHAVMGRTLSMTLKHLDSYLADCYDAIAVFLCIHIVLRFRNIAAKRDVPALDRYWEQVLALLWPRFELILEMNVQSVRSTDPQRLGGLDTRPHYITRRYAEFSSALVSINQTIPNERTMQLLGQLQVEVENFVLRVAAEFSSRKEQLVFLINNYDMMLGVLMERAADDSKEVESFQQLLNARTQEFIEELLSPPFGGLVAFVKEAEALIERGQAERLRGEEARVTQLIRGFGSSWKSSVESLSQDVMRSFTNFRNGTSIIQGALTQLIQLYHRFHRVLSQPQLRALPARAELINIHHLMVELKKHKPNF	binding [2]: binds
binds	binds	binds	ASB6 MAPPIT prey (protein, UniProt Q9NWX5 1-421) MPFLHGFRRIIFEYQPLVDAILGSLGIQDPERQESLDRPSYVASEESRILVLTELLERKAHSPFYQEGVSNALLKMAELGLTRAADVLLRHGANLNFEDPVTYYTALHIAVLRNQPDMVELLVHHGADVNRRDRIHESSPLDLASEEPERLPCLQRLLDLGADVNAADKHGKTALLHALASSDGVQIHNTENIRLLLEGGADVKATTKDGDTVFTCIIFLLGETVGGDKEEAQMINRFCFQVTRLLLAHGADPSECPAHESLTHICLKSFKLHFPLLRFLLESGAAYNCSLHGASCWSGFHIIFERLCSHPGCTEDESHADLLRKAETVLDLMVTNSQKLQLPENFDIHPVGSLAEKIQALHFSLRQLESYPPPLKHLCRVAIRLYLQPWPVDVKVKALPLPDRLKWYLLSEHSGSVEDDI	
			E-tagged RNF41 (wild type) (protein, UniProt Q9H4P4 1-317) MGYDVTRFQGDVDEDLICPICSGVLEEPVQAPHCEHAFCNACITQWFSQQQTCPVDRSVVTVAHLRPVPRIMRNMLSKLQIACDNAVFGCSAVVRLDNLMSHLSDCEHNPKRPVTCEQGCGLEMPKDELPNHNCIKHLRSVVQQQQTRIAELEKTSAEHKHQLAEQKRDIQLLKAYMRAIRSVNPNLQNLEETIEYNEILEWVNSLQPARVTRWGGMISTPDAVLQAVIKRSLVESGCPASIVNELIENAHERSWPQGLATLETRQMNRRYYENYVAKRIPGKQAVVVMACENQHMGDDMVQEPGLVMIFAHGVEEI	binding [5]: binds; binding (Flag-tagged RNF41 L163Q [6]): binds; binding [7]: binds; binding (Flag-tagged RNF41 L163Q [8]): binds; binding [9]: binds
binds			HOMER2 MAPPIT prey (protein, UniProt Q9NSB8 1-354) MGEQPIFTTRAHVFQIDPNTKKNWMPASKQAVTVSYFYDVTRNSYRIISVDGAKVIINSTITPNMTFTKTSQKFGQWADSRANTVFGLGFSSEQQLTKFAEKFQEVKEAAKIAKDKTQEKIETSSNHSQESGRETPSSTQASSVNGTDDEKASHAGPANTHLKSENDKLKIALTQSAANVKKWEIELQTLRESNARLTTALQESAASVEQWKRQFSICRDENDRLRNKIDELEEQCSEINREKEKNTQLKRRIEELEAELREKETELKDLRKQSEIIPQLMSECEYVSEKLEAAERDNQNLEDKVRSLKTDIEESKYRQRHLKVELKSFLEVLDGKIDDLHDFRRGLSKLGTDN	
	binds	binds	USP8 MAPPIT prey (protein, UniProt P40818 1-1118) MPAVASVPKELYLSSSLKDLNKKTEVKPEKISTKSYVHSALKIFKTAEECRLDRDEERAYVLYMKYVTVYNLIKKRPDFKQQQDYFHSILGPGNIKKAVEEAERLSESLKLRYEEAEVRKKLEEKDRQEEAQRLQQKRQETGREDGGTLAKGSLENVLDSKDKTQKSNGEKNEKCETKEKGAITAKELYTMMTDKNISLIIMDARRMQDYQDSCILHSLSVPEEAISPGVTASWIEAHLPDDSKDTWKKRGNVEYVVLLDWFSSAKDLQIGTTLRSLKDALFKWESKTVLRNEPLVLEGGYENWLLCYPQYTTNAKVTPPPRRQNEEVSISLDFTYPSLEESIPSKPAAQTPPASIEVDENIELISGQNERMGPLNISTPVEPVAASKSDVSPIIQPVPSIKNVPQIDRTKKPAVKLPEEHRIKSESTNHEQQSPQSGKVIPDRSTKPVVFSPTLMLTDEEKARIHAETALLMEKNKQEKELRERQQEEQKEKLRKEEQEQKAKKKQEAEENEITEKQQKAKEEMEKKESEQAKKEDKETSAKRGKEITGVKRQSKSEHETSDAKKSVEDRGKRCPTPEIQKKSTGDVPHTSVTGDSGSGKPFKIKGQPESGILRTGTFREDTDDTERNKAQREPLTRARSEEMGRIVPGLPSGWAKFLDPITGTFRYYHSPTNTVHMYPPEMAPSSAPPSTPPTHKAKPQIPAERDREPSKLKRSYSSPDITQAIQEEEKRKPTVTPTVNRENKPTCYPKAEISRLSASQIRNLNPVFGGSGPALTGLRNLGNTCYMNSILQCLCNAPHLADYFNRNCYQDDINRSNLLGHKGEVAEEFGIIMKALWTGQYRYISPKDFKITIGKINDQFAGYSQQDSQELLLFLMDGLHEDLNKADNRKRYKEENNDHLDDFKAAEHAWQKHKQLNESIIVALFQGQFKSTVQCLTCHKKSRTFEAFMYLSLPLASTSKCTLQDCLRLFSKEEKLTDNNRFYCSHCRARRDSLKKIEIWKLPPVLLVHLKRFSYDGRWKQKLQTSVDFPLENLDLSQYVIGPKNNLKKYNLFSVSNHYGGLDGGHYTAYCKNAARQRWFKFDDHEVSDISVSSVKSSAAYILFYTSLGPRVTDVAT	
